Drawing on doi:10.1101/325282, this text covers binding for four molecules.

By UniProt entry, the sequences of proteins in these tests, tags left out.
UniProt Q96EQ9: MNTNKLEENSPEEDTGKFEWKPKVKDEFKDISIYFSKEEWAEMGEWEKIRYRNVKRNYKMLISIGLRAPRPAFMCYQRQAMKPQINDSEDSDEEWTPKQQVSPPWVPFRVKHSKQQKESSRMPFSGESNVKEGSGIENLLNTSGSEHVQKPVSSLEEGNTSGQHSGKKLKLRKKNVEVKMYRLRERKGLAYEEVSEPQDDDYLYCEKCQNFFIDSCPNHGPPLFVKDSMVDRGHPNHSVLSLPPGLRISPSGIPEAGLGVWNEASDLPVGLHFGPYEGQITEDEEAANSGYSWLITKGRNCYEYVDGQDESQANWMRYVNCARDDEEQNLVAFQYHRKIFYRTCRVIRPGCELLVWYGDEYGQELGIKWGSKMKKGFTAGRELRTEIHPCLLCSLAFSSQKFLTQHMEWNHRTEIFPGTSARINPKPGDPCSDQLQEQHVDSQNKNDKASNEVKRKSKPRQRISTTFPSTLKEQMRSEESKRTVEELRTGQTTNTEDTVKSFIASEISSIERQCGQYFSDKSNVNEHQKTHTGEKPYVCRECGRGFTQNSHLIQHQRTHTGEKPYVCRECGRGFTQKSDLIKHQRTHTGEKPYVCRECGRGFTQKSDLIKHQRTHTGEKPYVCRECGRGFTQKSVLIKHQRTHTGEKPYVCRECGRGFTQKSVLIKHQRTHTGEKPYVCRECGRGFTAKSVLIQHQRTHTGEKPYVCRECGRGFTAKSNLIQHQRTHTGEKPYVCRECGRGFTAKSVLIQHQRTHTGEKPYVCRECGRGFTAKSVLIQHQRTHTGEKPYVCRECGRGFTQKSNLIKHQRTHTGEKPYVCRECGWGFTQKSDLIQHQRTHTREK

In test [1] the target is full-length PRDM9, recombinant (6HisHALO-MBP-PRDM9 and MBP-PRDM9) (UniProt Q96EQ9). The experiment in a line: pull-down.
The target of test [2] is T1, Ewing sarcoma RNA binding protein 1 (EWSR1) (mouse (endogenous in testis)), Q61545.
T1 chain: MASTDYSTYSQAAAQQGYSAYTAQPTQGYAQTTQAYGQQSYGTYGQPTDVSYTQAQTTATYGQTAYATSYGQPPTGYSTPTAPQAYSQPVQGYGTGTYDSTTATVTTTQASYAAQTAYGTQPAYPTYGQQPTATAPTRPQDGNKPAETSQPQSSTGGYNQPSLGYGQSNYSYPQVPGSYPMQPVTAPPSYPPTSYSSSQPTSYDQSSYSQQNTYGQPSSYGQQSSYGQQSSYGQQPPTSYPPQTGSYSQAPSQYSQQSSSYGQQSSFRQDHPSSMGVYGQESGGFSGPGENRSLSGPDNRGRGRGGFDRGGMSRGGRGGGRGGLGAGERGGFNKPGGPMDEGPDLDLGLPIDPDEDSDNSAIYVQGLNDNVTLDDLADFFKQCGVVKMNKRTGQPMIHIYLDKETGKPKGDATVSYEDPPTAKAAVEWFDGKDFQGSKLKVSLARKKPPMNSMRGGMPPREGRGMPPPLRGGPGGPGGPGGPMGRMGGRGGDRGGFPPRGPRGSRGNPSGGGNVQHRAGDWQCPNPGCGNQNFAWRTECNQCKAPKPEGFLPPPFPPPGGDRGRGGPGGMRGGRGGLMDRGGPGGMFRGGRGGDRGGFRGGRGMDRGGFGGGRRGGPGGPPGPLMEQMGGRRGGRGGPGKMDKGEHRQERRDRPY
The experiment in a line: co-IP. The settings on record: remark: other sources report otherwise.

In test [3] the target is Ewing sarcoma RNA binding protein 1 (EWSR1) (mouse (endogenous in testis)) (UniProt Q61545). The test can be described thus: co-IP.

No constants are given. Whether binding was seen depends on the method and setting. For some of these results: In cells and extracts the contact can be indirect. Some results given as binding are weak or reduced against the parent protein; the word gives no strength.

Turning to “full-length PRDM9, recombinant (6HisHALO-MBP-PRDM9 and MBP-PRDM9) (from UniProt Q96EQ9 1-843)”, in test [1], the binding entry is “binds”.

B1: SYCP1, synaptonemal complex protein, Q62209 1-993 (protein)
chain: MEKQKPFTLFVPPRLSSSQVSAVKPQTAGGDSNYFKTANKCTEGDFGVPFTMSSRENIDKDPAFQKLSILPMLEQVANSGSCHYQEGVNDSDFENSEPMSRLYSKLYKEAEKIKKWKVSIESELKQKENKLQENRKIIEAQRKAIQELQFENEKVSLKLEEEIQENKDLIKENNATIHWCNLLKETCARSAEKTNKYEYEREETRQVYVDLNSNIEKMILAFEELRVQAENARLEMHFKLKEDHEKIQHLEEEYQKEVNNKENQVSELLIQSAEKENKMKDLTFLLEESRDKANQLEEKTKLQDENLKELSEKKDHLTSELEDIKMSMQRSMSTQKALEEDLQIATKTISQLTEVKEAQMEELNKAKTTHSFVVTELKATTCTLEELLRTEQQRLEKNEDQLKLITVELQKKSNELEEMTKFKNNKEVELEELKNILAEDQKLLDEKKQVEKLAEELQEKEQELTFLLETREKEVHDLQEQVTVTKTSEQHYLKQVEEMKTELEKEKLKNTELTASCDMLLLENKKFVQEASDMALELKKHQEDIINCKKQEERLLKQIENLEEKEMHLRDELESVRKEFIQQGDEVKCKLDKSEENARSIECEVLKKEKQMKILESKCNNLKKQVENKSKNIEELHQENKTLKKKSSAEIKQLNAYEIKVSKLELELESTKQRFEEMTNNYQKEIENKKISEGKLLGEVEKAKATVDEAVKLQKEIDLRCQHKIAEMVALMEKHKHQYDKIVEERDSELGLYKNREQEQSSAKIALETELSNIRNELVSLKKQLEIEKEEKEKLKMAKENTAILKDKKDKKIQASLLESPEATSWKFDSKTTPSQNISRLSSSMDSGKSKDNRDNLRASAKSILPTTVTKEYTVKTPTKKSIYQRENKYIPTGGSNKKRKTAFEFDVNSDSSETADLLSLVSEEDVSNRLYDNNPPDSHLLVKTPKQTPLSLSTPASFMKFGSLKKMREDRWTTIAKIDRKRRLKEAEKLFS
For the molecule B1, in test [2], the binding result is “no binding”.

B2: SYCP3, synaptonemal complex protein, P70281 1-254 (protein)
chain: MLRGCGDSDSSPEPLSKHLKMVPGGRKHSGKSGKPPLVDQPKKAFDFEKDDKDLSGSEEDVADEKAPVIDKHGKKRSAGIIEDVGGEVQNMLEKFGADINKALLAKRKRIEMYTKASFKASNQKIEQIWKTQQEEIQKLNNEYSQQFMNVLQQWELDIQKFEEQGEKLSNLFRQQQKIFQQSRIVQSQRMFAMKQIHEQFIKSLEDVEKNNDNLFTGTQSELKKEMAMLQKKVMMETQQQEMANVRKSLQSMLF
Turning to B2, in test [2], the binding result is on record as “no binding”.

B3: pREC8, phosphorylated meiosis-specific cohesin REC8 (protein, UniProt Q8C5S7 1-591)
chain: MFYYPNVLQRHTGCFATIWLAATRGSRLVKREYLNVNVVKTCEEILNYVLVRVQPPVAGLPRPRFSLYLSAQLQIGVIRVYFQQCQYLVEDIQHILEHLHRAQLRIRIDMEEADLPSLLLPNCLAMMETLEDAPEPFFGKMSVDPRLPSPFDIPQIRHLLEAATPEKTRKETLPEATPDPRKPDRTLATVQSPEVITLQEAEPIRMLQIEGEQDLPEISRGDLELLIAEKDDAILLEERQRGRLLRQRRASLPLDESREEPRALEGAGLVSALSPPAPAQVEGIQEALPGQVFPPEVQKMTGWEPGALLTEVTPPQELRLPAPPSTEKRLPSLQRPLPRRHRRRQLLFWDKETQISREKFEEQLQTGAHCWEYPVAQPPKRMLTSPAELFRTPTLSGWLPPELLGLWTHCAQVPQRMLRQRPQLETEETVEEERAADEEERRKTEALSEIEVLREAQEPSGPLMLSSELSLEAAEDEKSRTSLIPPEWWAWSEEGQPEPPALPMLPELPEVPMEMPPRPELSSEAVLRAVALKLQANKELDFSSLVPPLSPRKLASRVFYLLLVLSTQKILLVEQQKPYGPLLIRPGPKFP
modifications: phosphorylated (sites not given)
B3: the binding result in test [3] is recorded as “binds”.
